Source: PubChem BioAssay AID1259254 (NCATS, 2017)

- Screen: 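Genome-wide screen for genes that prevent DNA re-replication in cancer cells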 (primary screen)
- Cells: human HCT116 colorectal cancer cells
- Reagents: single siRNA against human genes
- Timing: 3 days
- Measurement: 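Nuclei stained with Hoechst and imaged; cell-cycle phase assigned by DNA content; G2 share scaled per plate, non-targeting siRNA 0%, GMNN siRNA 100%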
- Direction: G2 robust z-score and G2 cells, % of GMNN control: higher = more G2 cells, more excess DNA replication
- Rule for the call: 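Active siRNAs have a G2 robust z of 5 or more median absolute deviations over the median, which in these data means about 38% or higher of GMNN control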
This is a random part of about 59,000 deposited reagents. About 1,550 of them (2.6%) count as active. 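G2 share is only a proxy for re-replication; each gene was hit by three separate siRNAs, and active genes were retested.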 The numbers tell different reagents against one gene apart. Further read-outs or replicates are left out here. No sequences are given here. The record does not give: the amount of reagent.

gene	siRNA no.	G2 robust z-score	G2 cells, % of GMNN control	outcome
MRPS6 (mitochondrial ribosomal protein S6)	1	1.87	16.1	inactive
MRPS6 (mitochondrial ribosomal protein S6)	2	0.226	4.56	inactive
MRPS6 (mitochondrial ribosomal protein S6)	3	3.67	28.8	inactive
ZC3H14 (zinc finger CCCH-type containing 14)	1	7.56	56.2	active
ZC3H14 (zinc finger CCCH-type containing 14)	2	0.721	8.04	inactive
ZC3H14 (zinc finger CCCH-type containing 14)	3	-0.392	0.213	inactive
SPEG (striated muscle enriched protein kinase)	1	-0.528	-0.747	inactive
SPEG (striated muscle enriched protein kinase)	2	0.317	5.2	inactive
SPEG (striated muscle enriched protein kinase)	3	-0.743	-2.26	inactive
STRIP1 (striatin interacting protein 1)	1	0.329	5.28	inactive
STRIP1 (striatin interacting protein 1)	2	4.72	36.2	inactive
STRIP1 (striatin interacting protein 1)	3	1.48	13.4	inactive
ZBED1 (zinc finger BED-type containing 1)	1	-1.28	-6.02	inactive
ZBED1 (zinc finger BED-type containing 1)	2	3.82	29.9	inactive
ZBED1 (zinc finger BED-type containing 1)	3	2.31	19.2	inactive
PTPRJ (protein tyrosine phosphatase receptor type J)	1	-1	-4.08	inactive
PTPRJ (protein tyrosine phosphatase receptor type J)	2	-0.908	-3.42	inactive
PTPRJ (protein tyrosine phosphatase receptor type J)	3	2.37	19.6	inactive
CCDC30 (coiled-coil domain containing 30)	1	1.25	11.7	inactive
CCDC30 (coiled-coil domain containing 30)	2	-0.176	1.73	inactive
CCDC30 (coiled-coil domain containing 30)	3	-0.258	1.15	inactive
CCDC30 (coiled-coil domain containing 30)	4	-0.348	0.52	inactive
CCDC30 (coiled-coil domain containing 30)	5	-0.629	-1.46	inactive
CCDC30 (coiled-coil domain containing 30)	6	-0.705	-1.99	inactive
PNN (pinin, desmosome associated protein)	1	5.44	41.2	active
PNN (pinin, desmosome associated protein)	2	-0.275	1.03	inactive
PNN (pinin, desmosome associated protein)	3	3.03	24.3	inactive
CLEC6A (C-type lectin domain containing 6A)	1	0.00604	3.01	inactive
CLEC6A (C-type lectin domain containing 6A)	2	2.04	17.3	inactive
CLEC6A (C-type lectin domain containing 6A)	3	0.471	6.28	inactive
ZNF213 (zinc finger protein 213)	1	0.306	5.12	inactive
ZNF213 (zinc finger protein 213)	2	-0.592	-1.19	inactive
ZNF213 (zinc finger protein 213)	3	-0.819	-2.79	inactive
CATSPER2 (cation channel sperm associated 2)	1	0.632	7.42	inactive
CATSPER2 (cation channel sperm associated 2)	2	-0.792	-2.6	inactive
CATSPER2 (cation channel sperm associated 2)	3	-0.878	-3.21	inactive
NMUR1 (neuromedin U receptor 1)	1	-0.888	-3.28	inactive
NMUR1 (neuromedin U receptor 1)	2	-0.764	-2.41	inactive
NMUR1 (neuromedin U receptor 1)	3	2.25	18.8	inactive
SLC15A4	1	0.609	7.25	inactive
SLC15A4	2	-0.656	-1.65	inactive
SLC15A4	3	-1.07	-4.53	inactive
SNX30 (sorting nexin family member 30)	1	0.469	6.27	inactive
SNX30 (sorting nexin family member 30)	2	1.21	11.5	inactive
SNX30 (sorting nexin family member 30)	3	-0.494	-0.508	inactive
ZNF615 (zinc finger protein 615)	1	-0.342	0.559	inactive
ZNF615 (zinc finger protein 615)	2	-0.609	-1.32	inactive
ZNF615 (zinc finger protein 615)	3	0.759	8.3	inactive

Called active, among the entries above:
gene	siRNA no.	G2 robust z-score	G2 cells, % of GMNN control	outcome
ZC3H14 (zinc finger CCCH-type containing 14)	1	7.56	56.2	active
PNN (pinin, desmosome associated protein)	1	5.44	41.2	active
